No constants are given. Whether binding was seen depends on the method and setting. Some results given as binding are weak or reduced against the parent protein; the word gives no strength.
Columns and labels:
[1] = target: recombinant cynomologous (cm) CTLA-4-Fc protein (R&D Systems) (cynomolgus monkey) (UniProt G7PL88); assay: ELISA, CTLA-4-Fc coated at 1 pmol/well, IgG titrated
[2] = target: recombinant cynomologous (cm) CTLA-4-Fc protein (R&D Systems) (cynomolgus monkey) (UniProt G7PL88); assay: competitive flow cytometry on 293T-CTLA-4 cells, soluble rcmCTLA-4-Fc
[3] = target: cynomologous CTLA-4 expressed on cells (293T cells transiently transfected with cynomologous CTLA-4; in vitro-activated cynomologous CD4+ T cells) (cynomolgus monkey) (UniProt G7PL88); assay: flow cytometry on 293T cells transiently transfected with cynomolgus CTLA-4
[4] = target: recombinant cynomologous (cm) CTLA-4-Fc protein (R&D Systems) (cynomolgus monkey) (UniProt G7PL88); assay: competitive flow cytometry on human and on cyno CTLA-4 293T cells, soluble cyno CTLA-4-Fc
[5] = target: cynomologous CTLA-4 expressed on cells (293T cells transiently transfected with cynomologous CTLA-4; in vitro-activated cynomologous CD4+ T cells) (cynomolgus monkey) (UniProt G7PL88); assay: flow cytometry on in vitro-activated cynomolgus CD4+ T cells (endogenous CTLA-4)
[6] = target: cynomologous CTLA-4 expressed on cells (293T cells transiently transfected with cynomologous CTLA-4; in vitro-activated cynomologous CD4+ T cells) (cynomolgus monkey) (UniProt G7PL88); assay: flow cytometry on cynomolgus CTLA-4 expressing cells (FIG. 25B)
[7] = target: recombinant cynomologous (cm) CTLA-4-Fc protein (R&D Systems) (cynomolgus monkey) (UniProt G7PL88); assay: ELISA on recombinant cynomolgus CTLA-4 protein (FIG. 24B)
[8] = target: recombinant cynomologous (cm) CTLA-4-Fc protein (R&D Systems) (cynomolgus monkey) (UniProt G7PL88); assay: ELISA, CTLA-4-Fc coated, IgG titrated

The chains behind the UniProt entries cited, without tags or fusion partners. Where a name states a change or a piece, a line headed by the entry shows the natural chain unless it says otherwise. A line that says so, or that is headed by a name, gives the form on record, which may keep a tag or linker.
recombinant cynomologous (cm) CTLA-4-Fc protein (R&D Systems) (G7PL88, form named): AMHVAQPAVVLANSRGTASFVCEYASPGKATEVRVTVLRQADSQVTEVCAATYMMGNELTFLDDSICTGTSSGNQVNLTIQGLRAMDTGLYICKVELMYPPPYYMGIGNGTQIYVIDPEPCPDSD

Measured: binding

B1: 2-F09 (antibody, V domains shown)
VH: EVQLLESGGGLVQPGGSLRLSCAASGFTFKAYSMSWIRQAPGKGLEWVSGISNTGGSTDFADSVKGRFTISRDNSKNTLYLQMNSLRAEDTAMYYCARLGYSGYDDRGMDVWGQGTLVTVSS
VL: QSVLTQPPSASGTPGQRVTISCSGSSSNIGSNYVYWYQQLPGTAPKLLIYGNSNRPSGVPDRFSGSKSGTSASLAISGLRSEDEADYYCQSYDSSLSGPVVFGGGTKLTVLG
binds: [1] | [2] | [3] | [4] | [5]

B2: 4-E03 (antibody, human IgG1, lambda, V domains shown)
VH: EVQLLESGGGLVQPGGSLRLSCAASGFTFSDYYMSWVRQAPGKGLEWVSGISWSSRDKGYADSVKGRFTISRDNSKNTLYLQMNSLRAEDTAVYYCTTDLARYWGQGTLVTVSS
VL: QSVLTQPPSASGTPGQRVTISCTGSSSNIGAGYDVHWYQQLPGTAPKLLIYGNDNRPSGVPDRFSGSKSGTSASLAISGLRSEDEADYYCAVWDDSLNGVVFGGGTKLTVLG
binds: all assays above
